Measurements as given in US6613734B2 (The Scripps Research Institute, priority 1988, dated 2003).

Assay: general procedure: Boc solid-phase peptide synthesis; lysine PAM-resin
Details: whole synthesis, scale of the general procedure 100 g of lysine PAM-resin

## KLLLLKLLLLKLLLLKLLLLK
  final HPLC purity: ≧95%

End groups of sequences in plain letters are not given here.
